This is an account of results in paper PMC9157164.

By UniProt entry, the sequences of proteins in these tests, tags left out.
UniProt B2RWS6: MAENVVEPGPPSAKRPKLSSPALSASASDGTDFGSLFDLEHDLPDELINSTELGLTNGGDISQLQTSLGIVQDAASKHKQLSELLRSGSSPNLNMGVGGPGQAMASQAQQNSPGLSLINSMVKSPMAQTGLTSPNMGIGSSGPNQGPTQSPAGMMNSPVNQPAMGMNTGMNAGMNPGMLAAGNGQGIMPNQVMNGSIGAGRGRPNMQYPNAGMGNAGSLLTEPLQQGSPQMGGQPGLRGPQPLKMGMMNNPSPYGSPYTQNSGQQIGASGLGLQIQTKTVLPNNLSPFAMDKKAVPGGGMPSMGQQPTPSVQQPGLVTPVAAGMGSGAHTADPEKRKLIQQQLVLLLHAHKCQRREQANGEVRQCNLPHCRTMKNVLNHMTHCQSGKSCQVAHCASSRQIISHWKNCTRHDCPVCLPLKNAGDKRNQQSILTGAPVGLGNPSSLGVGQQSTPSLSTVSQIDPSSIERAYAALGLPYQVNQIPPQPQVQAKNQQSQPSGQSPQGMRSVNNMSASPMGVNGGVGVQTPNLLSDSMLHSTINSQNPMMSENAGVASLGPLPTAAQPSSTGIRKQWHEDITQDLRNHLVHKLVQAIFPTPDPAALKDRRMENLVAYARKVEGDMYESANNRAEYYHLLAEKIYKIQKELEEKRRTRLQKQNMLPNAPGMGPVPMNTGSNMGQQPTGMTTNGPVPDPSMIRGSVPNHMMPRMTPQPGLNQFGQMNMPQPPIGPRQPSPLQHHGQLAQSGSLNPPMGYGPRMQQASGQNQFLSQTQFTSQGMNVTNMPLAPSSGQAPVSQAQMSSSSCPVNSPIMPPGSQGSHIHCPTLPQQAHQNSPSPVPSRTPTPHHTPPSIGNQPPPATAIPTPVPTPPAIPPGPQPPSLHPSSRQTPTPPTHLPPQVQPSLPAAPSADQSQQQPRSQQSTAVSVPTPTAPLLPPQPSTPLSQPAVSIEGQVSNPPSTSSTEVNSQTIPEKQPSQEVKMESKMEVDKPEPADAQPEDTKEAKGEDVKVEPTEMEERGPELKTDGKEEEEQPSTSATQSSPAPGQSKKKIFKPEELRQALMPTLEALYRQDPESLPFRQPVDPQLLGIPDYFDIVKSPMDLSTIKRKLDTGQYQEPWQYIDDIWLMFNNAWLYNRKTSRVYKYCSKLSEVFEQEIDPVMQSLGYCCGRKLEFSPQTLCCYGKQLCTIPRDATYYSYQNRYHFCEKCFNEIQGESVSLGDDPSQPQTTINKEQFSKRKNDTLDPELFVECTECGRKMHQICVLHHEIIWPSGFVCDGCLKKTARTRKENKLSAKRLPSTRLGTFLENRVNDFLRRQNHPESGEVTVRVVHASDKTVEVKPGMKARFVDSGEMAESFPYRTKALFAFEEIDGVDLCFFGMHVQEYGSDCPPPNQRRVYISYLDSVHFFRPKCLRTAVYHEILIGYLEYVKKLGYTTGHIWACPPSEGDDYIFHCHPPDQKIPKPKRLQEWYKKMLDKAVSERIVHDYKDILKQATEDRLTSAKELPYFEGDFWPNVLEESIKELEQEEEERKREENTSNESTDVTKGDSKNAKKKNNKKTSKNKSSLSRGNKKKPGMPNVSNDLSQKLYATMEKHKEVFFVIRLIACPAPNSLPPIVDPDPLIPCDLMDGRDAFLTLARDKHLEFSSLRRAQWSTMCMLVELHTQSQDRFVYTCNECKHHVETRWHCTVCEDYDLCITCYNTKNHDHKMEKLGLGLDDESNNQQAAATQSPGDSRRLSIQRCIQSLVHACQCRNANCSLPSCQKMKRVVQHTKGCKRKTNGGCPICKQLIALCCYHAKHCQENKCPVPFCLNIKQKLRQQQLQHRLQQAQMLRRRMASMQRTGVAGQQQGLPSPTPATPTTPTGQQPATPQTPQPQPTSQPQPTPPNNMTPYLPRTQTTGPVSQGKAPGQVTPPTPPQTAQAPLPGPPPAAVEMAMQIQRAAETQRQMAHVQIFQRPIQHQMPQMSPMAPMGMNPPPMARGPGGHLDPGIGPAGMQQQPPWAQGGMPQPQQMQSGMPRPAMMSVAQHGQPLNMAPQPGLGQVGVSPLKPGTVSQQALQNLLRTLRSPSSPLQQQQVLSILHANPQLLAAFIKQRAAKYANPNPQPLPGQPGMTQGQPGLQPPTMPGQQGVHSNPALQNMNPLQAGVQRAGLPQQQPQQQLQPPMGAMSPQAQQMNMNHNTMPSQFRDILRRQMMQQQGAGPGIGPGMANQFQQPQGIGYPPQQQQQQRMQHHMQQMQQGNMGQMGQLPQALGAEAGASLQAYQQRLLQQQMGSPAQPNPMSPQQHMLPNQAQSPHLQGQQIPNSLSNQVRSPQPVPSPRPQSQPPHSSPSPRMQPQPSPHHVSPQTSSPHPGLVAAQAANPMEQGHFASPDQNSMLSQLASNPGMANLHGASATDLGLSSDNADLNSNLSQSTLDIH
UniProt O09106: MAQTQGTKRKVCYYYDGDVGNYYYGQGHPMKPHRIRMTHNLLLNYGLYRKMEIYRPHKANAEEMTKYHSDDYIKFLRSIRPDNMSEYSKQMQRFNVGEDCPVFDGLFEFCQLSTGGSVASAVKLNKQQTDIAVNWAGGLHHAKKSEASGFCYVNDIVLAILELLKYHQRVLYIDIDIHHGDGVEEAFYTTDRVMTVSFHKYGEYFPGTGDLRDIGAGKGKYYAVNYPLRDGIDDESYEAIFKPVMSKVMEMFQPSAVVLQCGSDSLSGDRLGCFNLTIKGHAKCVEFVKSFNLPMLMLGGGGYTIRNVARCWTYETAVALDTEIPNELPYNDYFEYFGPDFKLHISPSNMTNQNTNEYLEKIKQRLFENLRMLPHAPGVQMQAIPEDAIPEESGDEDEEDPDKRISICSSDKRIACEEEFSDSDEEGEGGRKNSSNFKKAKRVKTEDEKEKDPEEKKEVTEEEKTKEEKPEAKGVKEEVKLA
UniProt Q8K4B0: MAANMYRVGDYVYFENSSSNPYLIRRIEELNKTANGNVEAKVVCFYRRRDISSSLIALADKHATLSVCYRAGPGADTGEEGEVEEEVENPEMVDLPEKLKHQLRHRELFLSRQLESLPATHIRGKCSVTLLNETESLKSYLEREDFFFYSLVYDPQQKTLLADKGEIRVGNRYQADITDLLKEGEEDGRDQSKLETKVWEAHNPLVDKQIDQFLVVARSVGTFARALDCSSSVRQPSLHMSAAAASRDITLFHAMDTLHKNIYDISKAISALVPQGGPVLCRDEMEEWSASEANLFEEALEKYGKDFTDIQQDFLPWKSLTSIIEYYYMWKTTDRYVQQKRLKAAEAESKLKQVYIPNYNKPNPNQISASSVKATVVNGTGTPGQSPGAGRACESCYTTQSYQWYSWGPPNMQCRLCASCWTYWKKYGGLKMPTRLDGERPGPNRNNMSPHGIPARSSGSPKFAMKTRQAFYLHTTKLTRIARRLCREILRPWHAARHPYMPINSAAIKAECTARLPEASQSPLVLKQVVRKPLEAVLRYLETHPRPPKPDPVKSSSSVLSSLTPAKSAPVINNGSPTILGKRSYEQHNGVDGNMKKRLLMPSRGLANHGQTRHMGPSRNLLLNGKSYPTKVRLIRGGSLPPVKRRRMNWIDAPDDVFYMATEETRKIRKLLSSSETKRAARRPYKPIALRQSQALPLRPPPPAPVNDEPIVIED

These are yes or no findings as the source states them, for the method shown. In cells and extracts the contact can be indirect.

In this experiment the target is p300 (mouse (endogenous in E14 ESCs)) (UniProt B2RWS6). Briefly: co-IP; whole-cell lysate of mouse ESCs in F lysis buffer (20 mM Tris pH 7.9, 500 mM NaCl, 0.1% NP40) adjusted to 300 mM NaCl; 200 ug protein extract incubated with antibodies; Western blot. On the technique in general: In western blotting, separated proteins are transferred to a membrane and probed.

“HDAC1 (from UniProt O09106 1-482) (enzyme)”: the binding entry is on record as “no binding”.
Regarding MTA1 (from UniProt Q8K4B0 1-715), the binding entry is on record as “no binding”.
